# Test results: publication PMC12979858
# Chains of the proteins cited; added tags and fusions are not shown.
# UniProt Q8CGF6: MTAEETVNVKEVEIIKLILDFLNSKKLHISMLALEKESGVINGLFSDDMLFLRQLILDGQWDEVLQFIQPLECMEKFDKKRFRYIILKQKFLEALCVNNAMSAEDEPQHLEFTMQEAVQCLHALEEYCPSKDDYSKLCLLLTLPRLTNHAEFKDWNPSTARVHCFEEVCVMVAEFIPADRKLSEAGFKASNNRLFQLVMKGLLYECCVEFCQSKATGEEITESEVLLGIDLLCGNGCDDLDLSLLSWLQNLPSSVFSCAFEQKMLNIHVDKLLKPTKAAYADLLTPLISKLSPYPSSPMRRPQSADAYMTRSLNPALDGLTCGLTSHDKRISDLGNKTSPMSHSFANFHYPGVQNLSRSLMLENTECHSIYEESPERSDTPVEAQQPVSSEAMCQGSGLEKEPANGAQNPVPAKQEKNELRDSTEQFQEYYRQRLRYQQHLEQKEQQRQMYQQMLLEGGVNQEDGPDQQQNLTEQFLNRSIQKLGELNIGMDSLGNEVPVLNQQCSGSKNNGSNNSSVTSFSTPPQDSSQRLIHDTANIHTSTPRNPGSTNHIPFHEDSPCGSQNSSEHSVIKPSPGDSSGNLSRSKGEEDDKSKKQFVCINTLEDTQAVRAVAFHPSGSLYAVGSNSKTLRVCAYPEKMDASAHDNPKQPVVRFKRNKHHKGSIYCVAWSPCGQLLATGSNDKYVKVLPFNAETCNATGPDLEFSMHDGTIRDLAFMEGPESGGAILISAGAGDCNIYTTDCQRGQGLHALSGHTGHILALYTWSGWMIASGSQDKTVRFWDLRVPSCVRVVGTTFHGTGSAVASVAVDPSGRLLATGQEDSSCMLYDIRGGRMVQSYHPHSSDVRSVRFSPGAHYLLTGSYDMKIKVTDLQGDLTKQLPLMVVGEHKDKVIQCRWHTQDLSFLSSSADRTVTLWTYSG
# These are yes or no findings as the source states them, for the method shown. Binding seen in cells or lysates may run through a third protein. Here binding means that the protein was enriched with, or labelled near, the bait; the list need not be complete.
# B1: RGS22 (protein, UniProt G3UYX5 1-1258)
# chain: MPEKRLSAEPPEVTEEEFENYLATDNFLVDYFNEFLSLPTFPEAIRFNVDYGVFEVVNDAPQLLEKQLKKILQNQQPRNPIYDVVRKGKSDSKSTQKSVPCEDEAINVNYSIMCLKREQGINWIKRERLPAFLESDCYFEYRLAKLISQATWSSTGMNFIVGTNFTPWILRRPPAPPPPSTDEDNYMIMKKFYVSLGQASYTQTKDWFTLAKESENTVTMASLPCCIPHHQTASPVIATASEIFDDGVHPRTIKSLSKSSKAVSELDEEEEGSISMKDSPSQALLRVYLEKKGGKERNLTLHFSSVEEFLDAYIIFILREAIQHITGQSLSDTPEYINYYKVSHVIFDKVPPVPSNKAIVSPPVEMVEEISKDRLENVSLSSESESIGPESRADWCISHRTYDIGNRREFERFKKFLKGTLGERYWWLWMDIERLKVLKDPERHQRHLEKMKKCYLVSSGERYLSAEILSKFKLLHGSRWTADHLKNIQAEVLKPLLLYWAPRFCVTHSASAKNASTELKFWRLRQEKPRKDVDPFPQMATLLPLRPKSCIPQTPEVQGEEINLFQPSKFKKLSKINAGTQQLGRSEPLNAVSSKDGGLEKGSKRLPESTTVVRLTSFTDISECLKPQLERKYTYTEEHNVKTVSNVGALGGFDMENLLQSLYVENRAGFFFTKFCENSGNKLWKHSVYFWFDLQAYHQLFYQETLQPFKVCKQAQYLFATYIAPSASFDIGLHQEGKKDIYMKIQPPFEDLFDTAEEFILLSLLEPWTQMVMSDKMAYKKVELQEETRQLDSACFRKLHALHKETISKKAEDTTGYAMAKLSLSDVSKQTEYWLNVPEGYKHFTFTDLLNNKLEFEHFRQFLESHSSSLDLMCWIDIEQFRRIIFKDQKQREEKSIYIKNKYLNKKYFFGPRSPASLHQQNQIMLLSGGWGRILHEQLDASVLVEIQKHVLNRLENVWLPLFLSSEQFASRQKIKTQMKDIADELLLQRHDRKIGVWKPVESKWISSSCEIIAFRKALLNPVIARQFQRFVALKGDLLENGVLFWQEVQKFKDLCHSHCDESIIHKKITTIINCFINSYIPPALQIDIPVEQAQKILEHRKELGPYVFREAQMTIFGVLFKFWPQFCEFRKNLTDEKIMSVLERRQEHKQKRKASDTEEDKAGKSGVKQYASTTGSLTKPVLGSESLLVLQSYGRQPTWCYSKYIEALEQERILLKIQEEVERKMFTGTSSFTNLLKPSTGSALSLKKNVSLHSIQR
# B2: NPHP1 (protein, UniProt Q9QY53 1-687)
# chain: MLARRPRDPLQALRRRGQELKLQVDSLVTESQLTGALEPSKRREIYQRCIQLKQAVDENKNTLQKLNKADEAAPVGNYEQRKEEEHSLLEKLACQLQELAVSISRKDALKVEAHSDKEEDDTTEDDEEETGGEEEESEGDGEGKQEQASPKQAETETVTYIALGDFAAQQTGDLTFKKGDVLHIIEKKPDGWWLAKDAEGVEGLIPRTYLEPYNKEDKLESSEGSEEGGEEDGEEDVEVVDETADGAQVKQRTDSHWSAVRKAISEQINTVDVLATMGAIPAGFRPSTLSQLLDEAGNQFRASYFLQPELTTSQLAFRDLTWDAKAGTIMSRPSRVSLILTLWSCKMIPLPGTSIQVLSRHIRLCLFDGSKVLSNIHTVRAVWQPKKPKTWTFSPQVTGILPCLLDGDCFIRSNSSTPDLGILFELGISYIRNSTGERGELSCGWVFLKLFDASGVPIPAKTYELFLNGGTPYEKGVEVDPSVSRRAQGSVFRQMISVRRQPQLLVKLRSLNRRSRAMLSLLPETLVGSMCSAHLLIFYRQILGDVLLRDRTNLQSADLISHPVLATFPLLLEQPDVMDALRSSWSEKESTLKRAEKRDKELLKAEFLLVYHDCVLPLLHSTLLPPFRWAEEETEAARWKAIADFLKQSRENEGSLKALLSPDGVHKPFDLSEQTFDFLGEIRKNSG
# B3: NPHP4 (protein, UniProt P59240 1-1425)
# chain: MGDWHRAFTQNTLVPPHPQRARQLGKESTAFQCILKWLDGPLIKQGILDMLSELECHLRVTLFDVTYKHFFGRTWKTTVKPTNQPSKQPPRITFNEPLYFHTTLSHPSIVAVVEVVTEGRKRDGTLQLLSCGFGILRIFGNKPESPTSAAQDKRLRLYHGTPRALLHPLLQDPIEQNKFMRLMENCSLQYTLKPHPPLEPAFHLLPENLLVSGFQQIPGLLPPHGDTGDALRKPRFQKPTTWHLDDLFFTLYPSLEKFEEELVQLLISDREGVGLLDSGTLEVLERRLHVCVHNGLGFVQRPQVVVLVPEMDVALTRSASFSRKISASSKNSSGNQALVLRSHLRLPEMVSHPAFAIVFQLEYVFNSPSGADGGASSPTSISSVACMHMVRWAVWNPDLEVGPGKVTLPLQGGVQQNPSRCLVYKVPSASMSSEEVKQVESGTIQFQFSLSSDGPTEHANGPRVGRRSSRKMPASPSGTPAPAARDLAATQDSPVGPGLSLSQLTASPLSPALQSSSKPPLQPPDSSQSPEGPQLQAESVLESRVSHLEADLSQPASLQGTPAVEHLQELPFTPLHAPIVVGAQTRSSRSQLSRAAMVLLQSSGFPEILDASQQPVEAVNPIDPVRFNPQKEESDCLRGNEIVLQFLAFSRAAQDCPGTPWPQTVYFTFQFYRFPPETTPRLQLVKLDGTGKSGSGSLSHILVPINKDGSFDAGSPGLQLRYMVDPGFLKPGEQRWFAHYLAAQTLQVDVWDGDSLLLIGSAGVQMKHLLRQGRPAVQVSHELEVVATEYEQEMMAVSGDVAGFGSVKPIGVHTVVKGRLHLTLANVGHACEPRARGSNLLPPSRSRVISNDGASFFSGGSLLIPGGPKRKRVVQAQRLADVDSELAAMLLTHTRAGQGPQAAGQEADAVHKRKLERMRLVRLQEAGGDSDSRRISLLAQHSVRAQHSRDLQVIDAYRERTKAESIAGVLSQAITTHHTLYATLGTAEFFEFALKNPHNTQHTVAIEIDSPELSIILDSQEWRYFKEATGLHTPLEEDMFHLRGSLAPQLYLRPRETAHIPLKFQSFSVGPLAPTQAPAEVITEKDAESGPLWKCSAMPTKHAKVLFRVETGQLIAVLCLTVEPQPHVVDQVFRFYHPELTFLKKAIRLPPWHTLPGAPVGMPGEDPPVHVRCSDPNVICEAQNVGPGEPRDVFLKVASGPSPEIKDFFVVIYADRWLAVPVQTWQVCLHSLQRVDVSCVAGQLTRLSLVLRGTQTVRKVRAFTSHPQELKTDPAGVFVLPPHGVQDLHVGVRPRRAGSRFVHLNLVDIDYHQLVASWLVCLSCRQPLISKAFEITMAAGDEKGTNKRITYTNPYPSRRTYRLHSDRPELLRFKEDSFQVAGGETYTIGLRFLPSGSAGQEEILIYINDHEDKNEETFCVKVLYQ
# B4: TXIP1 (protein, UniProt Q99P25 1-704)
# chain: MANLQERKSFSKPRISIQASGGTPEAKGIEKRKLSQKRRTLPLQLSLGGHLSPWPTYTSGQTVLHNRKPCSDDSRNRANSCQQQSMSISKPKYLEQLENYLRKELLLLDLSTDSAQELRLQPYREIFEFFIEDFKTYKPLLSSIKNAYEVMLAHQKERIRSLEPLKAKIVTMNEDCSERVLAMRAEERYEISVLKKEKMNLLKLIDKKNEEKISLQSEVAKLRRSLAEEYLRYLTERDARKILIGDLNELRYQQEDMSLAQTPGVWGEDPVKLTLALKMTRQDLTRTQMELNTMKANSGDVVPRRDLEMQEKTNMELQEQLESLKADYEEVQKEHELLLQLHMSTLKERDQFYNELQEIQRTSTPRPDWTKCESIIAGGPERWLVLAEGKNSDQLVDVLLEEIGMGLLREKDFFPGLGFGDAIPPFLRFDGPVKNKKPSKKEVVNLLKDAWKERIAEEQKEPFPDFFFNFLERRFGVNDAMAWAYTIFENIKLFRSSEIMNQFYAVLMGKNLESVYINQKKTLSHLLKELLSVDTQNEGSITMEQFSTILKTTFPLKKEEQIQELMEAVGWGPDSSNTDMLNYRSLFNEDEEGQSEPFVQRLWEQYESDKEAYLEELKQELDLDPLEDVTLLKMRGTLMNIDPTMDKQTLSAYLSQAYQIPAIDVPLEDEEKQGIISIKVETALDRLRMADTKRVGPREPDPAS
# B5: ARMC3 (protein, UniProt A2AU72 1-881)
# chain: MGKKIKKEVEPPPKDVFDPITIESKKAATVVLMLKSPEEDILAKACEAIYKFALKGEENKATLLELGAVEPLTKLLTHEDKTVRRNAMMIFGILASNSDVKKLLRELEVMNSVIAQLSPEEEVVIHEFASLCLANMSVEYTGKVQIFEHGGLEPLIRLLSSSDPDVKKNSIECIYNLVQDFQCRTTLQELNAIPPILELLRSEYPIIQLLALKTLGVITCDKEARTMLKENQGLDHLTKILETKELNDLHVEALSVIANCLEDMDTMVLMQQTGSLKKVLSFAESSTIPDIQKNAAKAIAKAAYDPENRKVFHEQEVEKCLVTLLGSDSDGTKIAASQAISALCENLSCKEFFNTQGIPQIVQLLRSDNEEVREAAALALANLTTSSPANANAAAEADAIDPLINILSSKRDGAIANAATVLTNMATQEPLRAIIQNHEIMHALLGPLHSTNTLVQSTAALTVAATACDVEARTQLRNCGGLVPLVGLLHSKNDEVRRHASWAVMVCAGDEPMAVELCRLGALNILEEINRSLSRKNKFSEAAYNKLLNNNLSLKYSQTGYLSSSNIISDGFYDYGRINPGTKLLSLKELCLQELNDQRAILLVNNKSDTSPPPSMEDKSSDVGYGRSISSSSSLRRGSKEKANAIFGSPTEEKSEPASVRNTILSRAFTKEKGVSKKKSRLQLICSSYLLWKGKGKKEEEKVKEEEEILALPKFTEGSPEKEWNPPPDPEFCVYVLEVTKSILPIVNLKEQIEVLAKYVADKMGGKIPKEKLADFSWELHISELKFQLKSNVVPIGYIKKGIFYHRALLFKALADKIGVGCSLVRGEYSRGWNEVKLVNEARKGMIGNLPPPEEYIVDLMFHPGNLLKLRSKEADLYRFL
# B6: C2ORF81 (protein, UniProt Q9DAQ4-1 1-598)
# chain: MSHEGSRQARDRGVTRSKAEKARPPTQPVPQVDIVPGRLNEAEWIAFMSLEEGEDVVGDILADLMTRVMECAFKVYLTQQCVPFTISQAREAMLQITEWRFLARDEGESAVAEDPTWGEDEEPLACTTDSWAQGSVPVLHTPAPVCVEEQFHNEEPGNPDQFLLGSSWDKESQKPTQPSEPSAEPKVTPRPTATLEAFEEAEPGDALEVPHGQEGSHMLAVPSKESLRSTAEGERVYSPQSSLKQPQVVRLQASEKESSFGSHLSLEDLYLCMPQPDAAGDRLSLQSKGQLHSSPIGSESHLGALTPAEPSAFQEPEVLGERPKHKTTTLRMDSSRLPRHWVRPVAEVLIPDLEVHPLEIYRGRPRRSQAGTATSACESQALSSRAPSKPHVSSPRFPLQRCATFRALGPDPSLNLAQTSPSFGSNVPFLSPGFRFLPRNPIPPDVASTPTPKLWPLAKWPSGWEREAEQLGELWAGRTRVPPQGQEPVEVTPLEEDSGWPLAAPQVLEATSQVLWKPMVISETMKLVPGVSMWNRGTQELLNPAVIRKEAEEGTPQAPEQQPIQTGVSKPQVIMKQIRNETPKAWLLPTKPVPHSGS
# B7: LRRC71 (protein, UniProt Q9D3W5 1-558)
# chain: MSSEPSTTGTSPRTPRPGAQKSSGAVTKKGDRAAKDKTASTLPPVGEDEPKNPEEYQCTGVLETDFAELCTRSGYVDFPKVVTRPRVQQSSVPSASTSEKPVLDDQRPSASCSQSSLESKYVFFRPTIQVELEQEDSKAVKEIYIRGWKVEDRILGIFSKCLPSLSQLQAINLWKVGLTDKTLTTFIALLPLCSSTLRKVSLEGNPIPEQSFSKLMGLDSTIVHLSLRNNNINDHGAQLLGQALSTLQNSNRTLVSLNLAFNHIGDVGAGYIADGLRLNRSLLWLSLAHNHIQDKGALKLAEVLRPFELTHREVVERRRLLLVKGTQERSRSPSSSRYGDSKAEREKSQTLGISNVTLVDKQEKMQSLKAPKTISKKKEKTGEVVKKEEKLGSGQSPTQGTPKKEDAAKAGKGKVTIPEQKMSKGKATKMGAKEKRSILLESEQLVVEATEMVNPLLEPVEHRDGKVFLPGNKVLLHLNLLRNQITEVGLEGFLTAVQYQVQVSKPKTSPKAPLGLLWLSLAKNCFDPQCPTHVMIQELMLPRDPVKAKAREEEAAAT
# Molecular target: APEX2-WDR47 (mouse) (UniProt Q8CGF6)
# Assay: proximity labelling; APEX2-WDR47 expressed in mEPCs by adenovirus; 500 uM biotin-phenol at 37 C for 30 min, 1 mM H2O2 for 1 min; lysis in RIPA buffer, biotinylated proteins on streptavidin-conjugated agarose beads, shotgun mass spectrometry; cutoff >= twofold peptide ratio against the mock-treated control
row,Binder,binding
1,B1,binds
2,B2,binds
3,B3,binds
4,B4,binds
5,B5,binds
6,B6,binds
7,B7,binds
